Experimental data from the supplement of paper PMC10849652.
The list shows a part of the results.

Protein sequences, listed by entry. Tags and fused reporters are not part of them. Lines headed by an entry give the natural chain unless they say otherwise; changes in a name come on top.
UniProt O75298: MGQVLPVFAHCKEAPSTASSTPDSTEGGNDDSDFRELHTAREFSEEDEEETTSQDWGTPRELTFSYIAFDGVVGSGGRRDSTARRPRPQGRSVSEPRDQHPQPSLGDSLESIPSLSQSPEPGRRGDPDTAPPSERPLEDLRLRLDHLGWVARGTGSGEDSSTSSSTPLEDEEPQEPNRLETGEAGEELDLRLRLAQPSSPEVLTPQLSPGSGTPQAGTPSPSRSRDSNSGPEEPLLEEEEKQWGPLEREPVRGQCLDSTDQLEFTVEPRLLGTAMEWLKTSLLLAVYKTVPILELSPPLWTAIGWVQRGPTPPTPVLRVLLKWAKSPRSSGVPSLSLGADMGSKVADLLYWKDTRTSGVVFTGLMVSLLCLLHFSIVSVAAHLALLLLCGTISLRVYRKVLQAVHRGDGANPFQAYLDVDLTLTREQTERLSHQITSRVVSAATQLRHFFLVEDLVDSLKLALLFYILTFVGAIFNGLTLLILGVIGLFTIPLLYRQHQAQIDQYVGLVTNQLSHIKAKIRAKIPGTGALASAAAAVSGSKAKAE
UniProt P57060: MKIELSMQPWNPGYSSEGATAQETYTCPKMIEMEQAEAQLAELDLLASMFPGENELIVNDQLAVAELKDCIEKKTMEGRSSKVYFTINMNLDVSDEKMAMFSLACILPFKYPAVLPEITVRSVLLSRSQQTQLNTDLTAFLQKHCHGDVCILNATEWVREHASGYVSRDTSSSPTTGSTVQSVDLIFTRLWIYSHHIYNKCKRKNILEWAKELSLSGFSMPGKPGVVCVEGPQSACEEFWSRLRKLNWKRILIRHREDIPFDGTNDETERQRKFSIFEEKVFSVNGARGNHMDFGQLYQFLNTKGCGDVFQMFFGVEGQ
UniProt P78346: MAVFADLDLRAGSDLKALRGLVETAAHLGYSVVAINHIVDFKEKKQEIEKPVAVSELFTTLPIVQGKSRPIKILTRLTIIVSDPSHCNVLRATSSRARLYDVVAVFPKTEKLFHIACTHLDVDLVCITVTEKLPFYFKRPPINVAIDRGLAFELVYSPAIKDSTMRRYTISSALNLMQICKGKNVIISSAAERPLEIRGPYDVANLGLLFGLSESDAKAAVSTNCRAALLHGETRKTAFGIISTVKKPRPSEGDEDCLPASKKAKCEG
UniProt Q96IZ7: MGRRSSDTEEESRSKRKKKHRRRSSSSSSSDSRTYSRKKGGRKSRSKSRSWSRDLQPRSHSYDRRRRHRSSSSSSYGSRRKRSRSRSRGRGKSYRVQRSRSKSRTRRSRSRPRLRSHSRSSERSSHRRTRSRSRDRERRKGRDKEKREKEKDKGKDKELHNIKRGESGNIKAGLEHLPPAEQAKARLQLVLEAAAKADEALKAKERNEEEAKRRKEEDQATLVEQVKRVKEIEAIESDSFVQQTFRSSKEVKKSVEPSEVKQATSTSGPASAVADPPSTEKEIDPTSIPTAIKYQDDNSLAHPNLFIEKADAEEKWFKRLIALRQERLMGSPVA
UniProt Q9NQC3: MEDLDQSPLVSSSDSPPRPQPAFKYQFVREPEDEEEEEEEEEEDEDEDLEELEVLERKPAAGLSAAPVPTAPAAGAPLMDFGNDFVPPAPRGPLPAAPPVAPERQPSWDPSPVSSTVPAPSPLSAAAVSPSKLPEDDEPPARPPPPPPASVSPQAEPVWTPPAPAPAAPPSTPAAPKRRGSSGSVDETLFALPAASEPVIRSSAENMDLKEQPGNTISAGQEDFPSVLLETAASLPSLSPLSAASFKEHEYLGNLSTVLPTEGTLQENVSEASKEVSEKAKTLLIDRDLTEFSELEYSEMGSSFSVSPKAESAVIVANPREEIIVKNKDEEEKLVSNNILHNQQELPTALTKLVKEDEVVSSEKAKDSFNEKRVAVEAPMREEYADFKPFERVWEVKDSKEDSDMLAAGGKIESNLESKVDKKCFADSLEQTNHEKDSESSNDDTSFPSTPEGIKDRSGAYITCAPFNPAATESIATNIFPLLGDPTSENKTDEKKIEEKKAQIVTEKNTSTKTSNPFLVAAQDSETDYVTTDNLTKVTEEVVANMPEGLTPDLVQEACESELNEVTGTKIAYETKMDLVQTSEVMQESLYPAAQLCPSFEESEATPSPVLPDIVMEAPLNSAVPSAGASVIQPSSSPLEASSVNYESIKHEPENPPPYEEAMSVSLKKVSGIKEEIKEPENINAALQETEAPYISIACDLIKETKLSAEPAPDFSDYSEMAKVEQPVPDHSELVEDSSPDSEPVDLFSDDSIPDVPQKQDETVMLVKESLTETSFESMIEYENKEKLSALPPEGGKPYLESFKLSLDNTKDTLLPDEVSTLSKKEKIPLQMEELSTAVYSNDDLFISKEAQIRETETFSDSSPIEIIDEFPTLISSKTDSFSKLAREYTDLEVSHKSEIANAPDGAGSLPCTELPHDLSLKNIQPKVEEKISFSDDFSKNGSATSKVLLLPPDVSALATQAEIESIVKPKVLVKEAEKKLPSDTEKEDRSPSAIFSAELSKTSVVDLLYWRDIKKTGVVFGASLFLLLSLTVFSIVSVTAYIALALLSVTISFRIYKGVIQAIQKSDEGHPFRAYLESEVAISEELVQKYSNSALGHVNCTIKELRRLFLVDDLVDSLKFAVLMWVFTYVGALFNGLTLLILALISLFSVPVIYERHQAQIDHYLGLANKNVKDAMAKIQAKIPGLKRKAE
UniProt Q7LG56, whole entry, looked up: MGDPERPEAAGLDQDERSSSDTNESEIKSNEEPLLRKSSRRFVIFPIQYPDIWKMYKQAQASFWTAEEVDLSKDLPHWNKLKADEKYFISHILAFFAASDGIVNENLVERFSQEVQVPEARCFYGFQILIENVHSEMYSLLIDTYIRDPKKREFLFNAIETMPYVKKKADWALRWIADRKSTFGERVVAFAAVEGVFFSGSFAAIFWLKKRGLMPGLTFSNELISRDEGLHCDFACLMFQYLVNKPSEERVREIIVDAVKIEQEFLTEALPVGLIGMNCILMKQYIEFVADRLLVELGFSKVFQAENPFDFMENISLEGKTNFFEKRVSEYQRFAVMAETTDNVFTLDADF
UniProt Q8N488: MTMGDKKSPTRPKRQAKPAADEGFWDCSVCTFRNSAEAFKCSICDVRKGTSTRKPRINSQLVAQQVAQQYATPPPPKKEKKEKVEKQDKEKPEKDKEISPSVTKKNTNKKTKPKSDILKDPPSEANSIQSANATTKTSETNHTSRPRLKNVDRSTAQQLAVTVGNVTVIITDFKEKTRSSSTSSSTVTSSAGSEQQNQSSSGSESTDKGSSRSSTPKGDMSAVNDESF
UniProt Q9P2E9: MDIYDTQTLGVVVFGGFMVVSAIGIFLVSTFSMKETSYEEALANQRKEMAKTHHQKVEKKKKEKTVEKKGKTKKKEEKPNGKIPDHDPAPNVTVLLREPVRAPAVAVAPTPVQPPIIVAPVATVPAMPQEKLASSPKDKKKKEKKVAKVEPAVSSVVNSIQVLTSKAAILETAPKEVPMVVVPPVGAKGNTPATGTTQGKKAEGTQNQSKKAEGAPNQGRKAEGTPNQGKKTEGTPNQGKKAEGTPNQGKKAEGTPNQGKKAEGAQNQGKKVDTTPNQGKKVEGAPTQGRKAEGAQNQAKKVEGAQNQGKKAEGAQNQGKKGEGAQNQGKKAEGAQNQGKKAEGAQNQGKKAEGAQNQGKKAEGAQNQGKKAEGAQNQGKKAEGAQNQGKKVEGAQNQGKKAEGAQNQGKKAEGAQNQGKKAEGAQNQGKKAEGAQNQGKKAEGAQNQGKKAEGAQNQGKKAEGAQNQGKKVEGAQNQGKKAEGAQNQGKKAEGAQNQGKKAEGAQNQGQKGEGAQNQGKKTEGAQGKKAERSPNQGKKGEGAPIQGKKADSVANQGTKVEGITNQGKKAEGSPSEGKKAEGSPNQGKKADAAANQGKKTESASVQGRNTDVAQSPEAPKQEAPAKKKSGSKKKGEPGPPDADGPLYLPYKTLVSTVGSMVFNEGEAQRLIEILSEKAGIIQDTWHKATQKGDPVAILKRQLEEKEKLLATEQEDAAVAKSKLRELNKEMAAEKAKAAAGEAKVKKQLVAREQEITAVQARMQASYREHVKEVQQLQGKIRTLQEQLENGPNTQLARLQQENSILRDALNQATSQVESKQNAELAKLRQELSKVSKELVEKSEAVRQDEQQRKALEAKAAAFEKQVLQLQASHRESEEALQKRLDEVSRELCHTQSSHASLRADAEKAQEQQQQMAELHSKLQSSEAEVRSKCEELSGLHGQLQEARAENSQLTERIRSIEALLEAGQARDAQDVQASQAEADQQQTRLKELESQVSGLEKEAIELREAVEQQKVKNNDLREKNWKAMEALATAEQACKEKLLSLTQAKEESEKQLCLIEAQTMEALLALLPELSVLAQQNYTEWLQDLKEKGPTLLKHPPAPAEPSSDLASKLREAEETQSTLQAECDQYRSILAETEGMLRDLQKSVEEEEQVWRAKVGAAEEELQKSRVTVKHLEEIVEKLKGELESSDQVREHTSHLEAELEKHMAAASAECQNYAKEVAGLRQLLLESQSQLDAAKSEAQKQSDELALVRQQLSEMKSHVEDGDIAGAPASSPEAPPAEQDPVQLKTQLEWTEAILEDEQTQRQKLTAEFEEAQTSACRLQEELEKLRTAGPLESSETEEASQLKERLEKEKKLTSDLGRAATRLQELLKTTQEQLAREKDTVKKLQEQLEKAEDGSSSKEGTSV
UniProt Q9BY42: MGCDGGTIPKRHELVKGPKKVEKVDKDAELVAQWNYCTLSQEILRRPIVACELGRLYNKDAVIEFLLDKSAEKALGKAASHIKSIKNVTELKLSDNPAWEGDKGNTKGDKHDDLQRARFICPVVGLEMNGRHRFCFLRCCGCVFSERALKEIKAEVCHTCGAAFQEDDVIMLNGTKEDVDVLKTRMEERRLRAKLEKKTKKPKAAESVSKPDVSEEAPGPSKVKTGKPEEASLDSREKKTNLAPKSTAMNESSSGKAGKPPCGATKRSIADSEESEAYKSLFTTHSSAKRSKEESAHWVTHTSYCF

Tests used:
Experiment in all cases: log2 fold change, soluble protein after heating vs DMSO (PISA); higher = thermal stabilisation; K562 lysate, 10 uM; active = over 0.2 and 3.5 SD of the protein, either way, in both replicates (recomputed)
[1] = compound: C#Cc1cccc(Nc2ncnc3cc(OCCOC)c(OCCOC)cc23)c1 [erlotinib]
Summary of the method: (§1)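 To prepare the extract, K562 pellets were dounce-homogenised in PBS pH 7.4 with 1 mM MgCl2, giving crude material at 1 mg/mL protein. This was treated with 10 μM compound for 30 min, then heated in aliquots for 3 min over 48°C-58°C before pooling and addition of NP-40 to 0.5% at 4°C. Centrifugation at 21,000xg for 90 min left soluble protein in the supernatant, which TMTpro 16plex LC-MS/MS quantified with equalised channel sums. Results are log-two fold changes in thermal stability compared with solvent controls, from duplicates.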

[2] = compound: C/C(=N\NC(=O)C1=CC(=CC=C1)S(=O)(=O)N2CCOCC2)/C3=C(C=CC(=C3)Cl)O
Summary of the method: as §1

[3] = compound: C1=CC(=CC=C1C2=NC3=C(N2)C=C(C=C3)C(=O)N)OC4=CC=C(C=C4)Cl
Summary of the method: as §1

[4] = compound: C1=CC2=C(C=CC(=C2)/C=C\3/C(=O)NC(=NCC4=CC=CS4)S3)N=C1
Summary of the method: as §1

[5] = compound: C1=CC2=NC=CN=C2C=C1/C=C/3\C(=O)NC(=O)S3
Summary of the method: as §1

[6] = compound: C1=CC=C(C=C1)C2=NC(=C(N2)C3=CC=NC=C3)C4=CC(=C(C=C4)Cl)O
Summary of the method: as §1

[7] = compound: C1=CC=C2C(=C1)C3=NNC4=CC=CC(=C43)C2=O
Summary of the method: as §1

[8] = compound: C1CCN(C1)C(=O)NC2=CC=CC(=C2)NC3=NC=C(C(=N3)NCCC4=CN=CN4)Br
Summary of the method: as §1

[9] = compound: C1CN(CCC1(CC2=CC=C(C=C2)Cl)N)C3=NC=NC4=C3C=CN4
Summary of the method: as §1

[10] = compound: C1COCCN1CCN2C3=CC=CC=C3N=C2NC(=O)C4=CC(=CC=C4)[N+](=O)[O-] [IRAK-1-4 Inhibitor I]
Summary of the method: as §1

[11] = compound: C=CC(=O)N1CCC[C@@H](n2nc(-c3ccc(Oc4ccccc4)cc3)c3c(N)ncnc32)C1 [ibrutinib]
Summary of the method: as §1

[12] = compound: CC(=O)c1cnc2ccc(-c3cc(Cl)c(O)c(Cl)c3)nc2c1N[C@H]1CC[C@H](CN(C)C)CC1
Summary of the method: as §1

[13] = compound: CC(C)(C)Cn1c(N)nc2ccc(-c3[nH]c(C(C)(C)C)nc3-c3ccc(F)cc3)nc21 [ralimetinib]
Summary of the method: as §1

[14] = compound: CC(C)(O)CC(=O)NCCn1ccc2ncnc(Nc3ccc(Oc4cccc(C(F)(F)F)c4)c(Cl)c3)c21
Summary of the method: as §1

[15] = compound: CC(C)C1=C2N=C(C=C(N2N=C1)NCC3=CC=CC=C3)NCCCCCCN
Summary of the method: as §1

[16] = compound: CC1=C(C(CC(=O)N1)C2=CC=C(C=C2)C(F)(F)F)C(=O)NC3=C(C=C4C(=C3)C=NN4)F
Summary of the method: as §1

[17] = compound: CC1=C(C2=C(C=C1)C(=O)C3=CC=CC=C3N2CCCN)C
Summary of the method: as §1

[18] = compound: CC1=C(C=C(C=C1)NC(=O)C2=CC(=CC=C2)C(C)(C)C#N)NC3=CC4=C(C=C3)N=CN(C4=O)C
Summary of the method: as §1

[19] = compound: CC1=C(C=C(C=C1)NC(=O)C2=CC(=CC=C2)N(C)C)NC(=O)C3=CC=C(C=C3)O
Summary of the method: as §1

[20] = compound: CC1=CC=C(C=C1)SC2=C3C=C(SC3=CN=C2)C(=O)N
Summary of the method: as §1

Measured: log2 fold change

RTN2 (UniProt O75298)
inactive: [1] -0.08 | [2] 0.025 | [3] -0.129 | [4] -0.026 | [5] 0.026 | [6] -0.047 | [7] 0.035 | [8] -0.008 | [9] 0 | [10] 0.071 | [11] -0.048 | [12] 0.023 | [13] 0.049 | [14] 0 | [15] -0.014 | [16] 0.089 | [17] 0.072 | [18] -0.04 | [19] 0.035 | [20] 0.026

RPS12 (UniProt P25398)
inactive: [1] 0.033 | [2] 0.02 | [3] -0.009 | [4] -0.022 | [5] -0.007 | [6] 0.038 | [7] 0.025 | [8] 0.044 | [9] 0.016 | [10] -0.001 | [11] -0.012 | [12] 0.018 | [13] -0.035 | [14] -0.004 | [15] -0.003 | [16] -0.023 | [17] 0.021 | [18] 0 | [19] 0.004 | [20] 0

RWDD2B (UniProt P57060)
inactive: [1] -0.037 | [2] 0.008 | [3] 0.051 | [4] -0.018 | [5] 0.04 | [6] 0 | [7] -0.089 | [8] 0.04 | [9] 0.056 | [10] -0.026 | [11] 0.048 | [12] 0.006 | [13] 0.017 | [14] 0 | [15] -0.013 | [16] -0.198 | [17] 0.016 | [18] -0.109 | [19] 0.046 | [20] 0.006

RTF1 (UniProt Q92541)
inactive: [1] -0.038 | [2] -0.038 | [3] 0.035 | [4] -0.012 | [5] -0.019 | [6] 0.001 | [7] 0.008 | [8] -0.023 | [9] -0.029 | [10] -0.047 | [11] -0.028 | [12] 0.004 | [13] 0.005 | [14] 0.011 | [15] 0.01 | [16] 0 | [17] 0.004 | [18] -0.02 | [19] 0.006 | [20] -0.008

RPLP0P6 (UniProt Q8NHW5)
inactive: [1] -0.003 | [2] -0.069 | [3] -0.034 | [4] 0.026 | [5] -0.05 | [6] 0.009 | [7] 0.03 | [8] 0.024 | [9] 0.004 | [10] 0.008 | [11] 0.064 | [12] -0.005 | [13] -0.01 | [14] -0.02 | [15] -0.009 | [16] -0.052 | [17] -0.028 | [18] 0.015 | [19] 0.01 | [20] -0.017

4 consecutive records out of the list so far, for reference:
RTN2 (UniProt O75298)
inactive: [1] -0.08 | [2] 0.025 | [3] -0.129 | [4] -0.026 | [5] 0.026 | [6] -0.047 | [7] 0.035 | [8] -0.008 | [9] 0 | [10] 0.071 | [11] -0.048 | [12] 0.023 | [13] 0.049 | [14] 0 | [15] -0.014 | [16] 0.089 | [17] 0.072 | [18] -0.04 | [19] 0.035 | [20] 0.026

RPS12 (UniProt P25398)
inactive: [1] 0.033 | [2] 0.02 | [3] -0.009 | [4] -0.022 | [5] -0.007 | [6] 0.038 | [7] 0.025 | [8] 0.044 | [9] 0.016 | [10] -0.001 | [11] -0.012 | [12] 0.018 | [13] -0.035 | [14] -0.004 | [15] -0.003 | [16] -0.023 | [17] 0.021 | [18] 0 | [19] 0.004 | [20] 0

RWDD2B (UniProt P57060)
inactive: [1] -0.037 | [2] 0.008 | [3] 0.051 | [4] -0.018 | [5] 0.04 | [6] 0 | [7] -0.089 | [8] 0.04 | [9] 0.056 | [10] -0.026 | [11] 0.048 | [12] 0.006 | [13] 0.017 | [14] 0 | [15] -0.013 | [16] -0.198 | [17] 0.016 | [18] -0.109 | [19] 0.046 | [20] 0.006

RTF1 (UniProt Q92541)
inactive: [1] -0.038 | [2] -0.038 | [3] 0.035 | [4] -0.012 | [5] -0.019 | [6] 0.001 | [7] 0.008 | [8] -0.023 | [9] -0.029 | [10] -0.047 | [11] -0.028 | [12] 0.004 | [13] 0.005 | [14] 0.011 | [15] 0.01 | [16] 0 | [17] 0.004 | [18] -0.02 | [19] 0.006 | [20] -0.008

The list continues.

RPP30 isoform 2 (UniProt P78346)
inactive: [1] -0.008 | [2] -0.025 | [3] 0.046 | [4] -0.031 | [5] -0.023 | [6] -0.013 | [7] -0.057 | [8] 0.014 | [9] 0.029 | [10] 0.011 | [11] 0.013 | [12] -0.003 | [13] 0.018 | [14] -0.056 | [15] -0.022 | [16] 0.004 | [17] -0.011 | [18] -0.015 | [19] 0.002 | [20] -0.01

RPL6 (UniProt Q02878)
inactive: [1] 0 | [2] -0.012 | [3] -0.038 | [4] -0.011 | [5] -0.014 | [6] 0.021 | [7] 0.055 | [8] 0.055 | [9] -0.011 | [10] 0.006 | [11] -0.008 | [12] 0.014 | [13] -0.004 | [14] 0.004 | [15] 0.009 | [16] -0.052 | [17] -0.023 | [18] 0.003 | [19] -0.026 | [20] 0.047

RSRC1 (UniProt Q96IZ7)
inactive: [1] 0.023 | [2] -0.024 | [3] -0.008 | [4] -0.005 | [5] 0.003 | [6] 0.02 | [7] 0.014 | [8] 0.009 | [9] -0.028 | [10] -0.009 | [11] 0.033 | [12] 0.02 | [13] 0.035 | [14] -0.013 | [15] 0.001 | [16] -0.08 | [17] -0.079 | [18] 0.011 | [19] 0.028 | [20] -0.008

RTN4 (UniProt Q9NQC3)
inactive: [1] -0.007 | [2] 0.034 | [3] -0.004 | [4] 0.008 | [5] 0.008 | [6] 0.023 | [7] -0.011 | [8] -0.019 | [9] 0.019 | [10] 0.04 | [11] 0.029 | [12] 0.013 | [13] 0.06 | [14] -0.017 | [15] -0.022 | [16] 0.007 | [17] -0.013 | [18] 0.022 | [19] -0.018 | [20] -0.01

RPS4X (UniProt P62701)
inactive: [1] -0.016 | [2] 0.014 | [3] -0.012 | [4] -0.012 | [5] -0.018 | [6] -0.002 | [7] -0.005 | [8] 0.017 | [9] 0.004 | [10] 0.03 | [11] 0 | [12] -0.003 | [13] 0.009 | [14] -0.021 | [15] 0.022 | [16] -0.026 | [17] -0.116 | [18] -0.008 | [19] -0.001 | [20] 0.034

RPS3 (UniProt P23396)
inactive: [1] -0.023 | [2] 0.002 | [3] -0.019 | [4] -0.01 | [5] -0.006 | [6] -0.009 | [7] 0.012 | [8] -0.006 | [9] -0.03 | [10] -0.006 | [11] 0.006 | [12] 0.004 | [13] 0.022 | [14] 0.008 | [15] -0.006 | [16] -0.031 | [17] -0.053 | [18] -0.002 | [19] -0.007 | [20] 0.028

RRM2B isoform 6 (UniProt Q7LG56)
inactive: [1] -0.029 | [2] 0.002 | [3] -0.019 | [4] -0.006 | [5] 0 | [6] 0.014 | [7] -0.01 | [8] -0.045 | [9] -0.001 | [10] 0.003 | [11] 0.008 | [12] -0.008 | [13] 0.016 | [14] 0.005 | [15] 0.005 | [16] 0 | [17] -0.019 | [18] 0.044 | [19] -0.062 | [20] -0.03

RYBP (UniProt Q8N488)
inactive: [1] -0.054 | [2] -0.013 | [3] 0.059 | [4] 0.065 | [5] -0.031 | [6] -0.053 | [7] -0.011 | [8] -0.006 | [9] 0.058 | [10] -0.023 | [11] -0.045 | [12] -0.009 | [13] -0.055 | [14] -0.035 | [15] -0.034 | [16] 0.019 | [17] -0.043 | [18] 0.053 | [19] 0.063 | [20] -0.053

RRBP1 (UniProt Q9P2E9)
inactive: [1] -0.021 | [2] 0.001 | [3] -0.031 | [4] 0.02 | [5] 0.003 | [6] -0.012 | [7] -0.004 | [8] 0.012 | [9] -0.021 | [10] -0.005 | [11] 0.007 | [12] -0.02 | [13] -0.01 | [14] -0.024 | [15] -0.021 | [16] 0.015 | [17] -0.016 | [18] -0.018 | [19] -0.008 | [20] 0

RTF2 (UniProt Q9BY42)
inactive: [1] -0.01 | [2] -0.14 | [3] -0.017 | [4] 0.008 | [5] 0.102 | [6] 0.033 | [7] -0.059 | [8] 0.078 | [9] 0.032 | [10] -0.01 | [11] 0.074 | [12] 0.004 | [13] 0.003 | [14] 0.017 | [15] -0.023 | [16] 0.014 | [17] -0.024 | [18] 0.052 | [19] -0.005 | [20] -0.062

RPL37 (UniProt P61927)
inactive: [1] -0.078 | [2] -0.032 | [3] -0.063 | [4] 0.021 | [5] 0.006 | [6] 0.005 | [7] 0.007 | [8] -0.013 | [9] -0.027 | [10] 0.039 | [11] 0.026 | [12] -0.043 | [13] -0.07 | [14] 0.044 | [15] -0.129 | [16] -0.04 | [17] -0.006 | [18] -0.101 | [19] 0.018 | [20] -0.061
